# Some of the results follow. Shown are side measurements of this screen, not its main read-out; they come without a call. Compounds called inactive in the main read-out are mostly missing here. The note in brackets gives the kind of curve behind each potency; many fits are weak.
# Assay: IkB Signaling
# Settings: ABC-DLBCL IkBa-CBG/CBR dual luciferase ratio (green luciferase fused to IkBa over red control in OCI-Ly3 lymphoma cells), 4 h
# Summary of the method: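 Curves were fitted separately to fusion (green), unfused (red) and ratio luminescence, then classed by r2, magnitude and activity. Cells: OCI-Ly3, 4 h compound plus doxycycline at 37C; 10 uM MG-132 defined full response.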
# [1] = measured here: control luc red channel unless noted
# [2] = measured here: IkB-luc green channel
# [3] = measured here: control luc red channel
smiles,measurement,setting,value
Cc1ccc(C)c(N2CCN(C(=O)c3cnn(-c4ccccc4Cl)c3C3CCN(C(=O)OC(C)(C)C)CC3)CC2)c1,AC50,[1],"15.8 µM [falling, partial curve]"
CCOc1ccc(CC(=O)NCC(c2cccs2)S(=O)(=O)c2ccc(F)c(C)c2)cc1 (centres undefined),AC50,[1],"15.8 µM [falling, single point]"
CCN(CC)c1nc(N)c2c(N)nc3c(c2c1C#N)CC(c1ccccc1)O3 (centres undefined),AC50,[1],"25.1 µM [falling, partial curve]"
O=C(Nc1ncc(Cc2ccccc2)s1)c1cccs1,AC50,[1],"10 µM [falling, partial curve]"
CCS(=O)(=O)c1cccc(C(=O)Nc2ccc(-c3nc4ccccc4s3)c(O)c2)c1,AC50,[1],"12.6 µM [rising, partial curve]"
Cc1cccc(NC(=O)Cn2c(=O)c3cccn3c3ccccc32)c1C,AC50,[1],"15.8 µM [falling, partial curve]"
O=C1NCCCC1C(=O)Nc1cccc(C(F)(F)F)c1 (centres undefined),AC50,[1],"15.8 µM [rising, partial curve]"
CC1CCN(C(=O)Cn2c(SCC(=O)Nc3ccc(F)cc3)nc3ccccc32)CC1,AC50,[1],"20 µM [falling, partial curve]"
COc1ccc(OC)c(CNC(=O)CSc2c3c(nc4cc(Cl)ccc24)CCCC3)c1,AC50,[1],"25.1 µM [falling, single point]"
Cc1cc(S(=O)(=O)Nc2ccc(O)c(Sc3nc4ccccc4s3)c2)ccc1Cl,AC50,[1],"25.1 µM [falling, partial curve]"
Cc1ccc(CCNC(=O)CN(c2ccc(C(C)C)cc2)S(=O)(=O)c2c(C)nn(C)c2C)cc1,AC50,[1],"10 µM [falling, partial curve]"
c1ccc2c(c1)nc(Nc1ccc3c(c1)OCO3)c1nnnn12,AC50,[1],"10 µM [falling, partial curve]"
c1cc2c3c(cccc3c1)C(N1CCCCC1)=N2,AC50,[1],"15.8 µM [falling, partial curve]"
O=C(COn1nnc2ccccc21)NCC1CCCCC1,AC50,[1],"0.158 µM [rising, full curve, poor fit]"
CSc1nnc2n(-c3cccc(C)c3)c(=O)c3c4c(sc3n12)CCCC4,AC50,[1],"39.8 µM [falling, single point]"
COc1ccccc1N1CCN(C(=O)c2ccc(Nc3nc4ccccc4n4nnnc34)cc2)CC1,AC50,[1],"3.16 µM [falling, full curve]"
CCn1c(=O)n(CC)c2cc(N3CCCC3)c(NC(=O)Nc3cc(C)cc(C)c3)cc21,AC50,[1],"15.8 µM [falling, single point]"
Cc1c(NC(=O)c2ccc(COc3ccc4ccccc4c3)o2)c(=O)n(-c2ccccc2)n1C,AC50,[1],"3.16 µM [falling, partial curve]"
O=C(Nc1ccccc1F)c1oc2ccccc2c1NC(=O)c1c(F)cccc1F,AC50,[1],"20 µM [falling, partial curve, poor fit]"
Cc1cccn2c(=O)cc(COc3cccc(NC(=O)c4cccc(Cl)c4)c3)nc12,AC50,[1],"5.01 µM [falling, partial curve]"
CCn1c(CN2CCCCC2)nc2cc(NC(=O)c3cccc([N+](=O)[O-])c3)ccc21,AC50,[1],"10 µM [falling, partial curve]"
Cc1ccc(CCNC(=O)CSCc2nc(-c3ccc(C)cc3)oc2C)cc1,AC50,[1],"20 µM [falling, partial curve]"
Cc1ccc(CNC(=O)c2nn(C)c3c2CSc2ccc(C)cc2-3)cc1,AC50,[1],"10 µM [falling, partial curve]"
O=C(NCCc1ccco1)c1nn(Cc2ccccc2)c(=O)c2ccccc12,AC50,[1],"7.94 µM [falling, partial curve]"
CCN(Cc1ccccc1)C(=O)Cn1c(=O)n(-c2cccc(C)c2)c(=O)c2c1c1cc(OC)ccc1n2C,AC50,[1],"0.2 µM [falling, partial curve]"
CC(C)c1ccc(OCC(=O)NCC(c2ccc(Cl)cc2)N2CCOCC2)cc1 (centres undefined),AC50,[1],"31.6 µM [falling, single point]"
Cc1nc2c(C(=O)NCCc3ccc(Cl)cc3)cnn2c(C)c1Cc1ccc(F)cc1,AC50,[1],"31.6 µM [falling, single point]"
COc1ccc(N2C(N)=C(C#N)C(c3cc(CN4CCOCC4)cs3)C3=C2CCCC3=O)cc1 (centres undefined),AC50,[1],"20 µM [falling, partial curve]"
CCn1c(Sc2ccc(N)cc2Cl)nc2ccccc21,AC50,[1],"15.8 µM [falling, partial curve]"
CC(=O)[C@@]1(O)Cc2c(O)c3c(c(O)c2[C@H](O[C@H]2C[C@H](N)[C@H](O)[C@H](C)O2)C1)C(=O)c1ccccc1C3=O,AC50,[2],"3.16 µM [falling, full curve]"
same,AC50,[3],"1.26 µM [falling, full curve]"
Nc1nc2n[nH]nc2c(=O)[nH]1,AC50,[1],"501 nM [rising, full curve] [measured here: IkB-luc green channel]"
CC1(C)Cc2c(sc3nc(-c4cccs4)n(N)c(=O)c23)CO1,AC50,[1],"10 µM [falling, partial curve]"
O=C(Nc1ccc2nc(SCC(=O)N3CCCc4ccccc43)sc2c1)c1ccc(Cl)cc1,AC50,[1],"2.51 µM [falling, partial curve]"
Cc1ccc(-n2ncc(C(=O)NC3CCN(Cc4ccccc4)CC3)c2C2CCN(C(=O)OC(C)(C)C)CC2)cc1C,AC50,[1],"20 µM [falling, partial curve]"
CCC(C(=O)NCCc1cc(OC)ccc1OC)n1nc(C)c2c(C)n(-c3ccccc3)nc2c1=O (centres undefined),AC50,[1],"1.58 µM [falling, full curve, poor fit]"
CC(Sc1nc(=O)cc(N)n1CCc1ccccc1)C(=O)Nc1cccc(Cl)c1 (centres undefined),AC50,[1],"15.8 µM [falling, partial curve]"
COc1ccc(C(=O)Nc2nc3n(n2)C(c2ccc(Cl)cc2)C=C(c2ccccc2)N3)cc1OC (centres undefined),AC50,[1],"7.94 µM [falling, full curve]"
COc1ccccc1N1CCN(S(=O)(=O)c2c(C)sc3ncn(CC(=O)Nc4ccc(C)cc4Br)c(=O)c23)CC1,AC50,[1],"3.98 µM [falling, single point]"
CCN(CC)S(=O)(=O)c1ccc2c(c1)c(=O)c(C(=O)N1CCN(c3cccc(Cl)c3)CC1)cn2C,AC50,[1],"1.58 µM [falling, full curve]"
CCc1ccc(C(=O)c2cn(CC(=O)Nc3ccc4c(c3)OCO4)c3ccc(F)cc3c2=O)cc1,AC50,[1],"3.16 µM [falling, partial curve]"
Clc1ccc(-n2ncc3c(NCCN4CCOCC4)ncnc32)cc1,AC50,[1],"20 µM [falling, partial curve]"
COc1ccccc1-c1nc(-c2cccc(C)c2)no1,AC50,[1],"12.6 µM [falling, partial curve]"
CS(=O)(=O)c1ccc2nc(NC(=O)C3COc4ccccc4O3)sc2c1 (centres undefined),AC50,[1],"39.8 µM [falling, single point]"
COc1ccc(N2CCN(C(=O)c3cnn(-c4ccc(OC)cc4)c3C3CCN(C(=O)OC(C)(C)C)CC3)CC2)cc1,AC50,[1],"31.6 µM [falling, single point]"
CSc1cccc(NS(=O)(=O)c2ccc(F)cc2)c1,AC50,[1],"31.6 µM [falling, single point]"
COc1ccccc1N1CCN(c2nc(C)nc3c2oc2ccccc23)CC1,AC50,[1],"12.6 µM [falling, partial curve]"
O=C(CCN1CCc2ccccc2C1)c1ccc2c(c1)OCCO2,AC50,[1],"3.16 µM [falling, full curve]"
Cc1ccc(CNC(=O)C2CCCN(c3ncnc4onc(-c5ccc(F)cc5)c34)C2)cc1 (centres undefined),AC50,[1],"39.8 µM [falling, single point]"
Cc1ccc(C2=CSC3=NCCN23)c(C)c1,AC50,[1],"20 µM [falling, partial curve]"
O=C(CN1C(=O)CCSc2ccccc21)Nc1ccc(C(F)(F)F)cc1,AC50,[1],"15.8 µM [falling, single point]"
Cc1ccc(Nc2cc(C)nn2-c2nc(C)cc(=O)[nH]2)cc1,AC50,[2],"0.158 µM [rising, full curve]"
same,AC50,[3],"0.631 µM [falling, full curve]"
CCOc1ccc(NC(=O)CN2CCN(CC(=O)Nc3ccc(F)cc3F)CC2)cc1,AC50,[1],"2 µM [falling, full curve]"
Cn1c(/C(C#N)=C/c2ccccc2Br)nc2ccccc21,AC50,[1],"31.6 µM [falling, single point]"
O=C(/C=C\Nc1ccccn1)c1ccc(Cl)cc1,AC50,[1],"0.794 µM [falling, full curve]"
CCc1cccc(NS(=O)(=O)c2ccc3c(c2)CC(C)N3C(=O)C2CC2)c1 (centres undefined),AC50,[1],"12.6 µM [falling, partial curve]"
O=C(COC(=O)Cn1cnc2ccccc21)NCCC1=CCCCC1,AC50,[1],"6.31 µM [falling, single point]"
COc1ccc(Cl)cc1NC(=O)CSc1nccn1-c1ccc(Cl)cc1,AC50,[1],"25.1 µM [falling, single point]"
Cc1ccc(C)c(N2CCN(C(=O)c3cc(C)nc4c3c(C)nn4-c3ccccc3)CC2)c1,AC50,[1],"10 µM [falling, partial curve, poor fit]"
CCOc1ccc(OCC(=O)Nc2ccc(S(=O)(=O)Nc3cc(C)on3)cc2)cc1,AC50,[1],"10 µM [falling, partial curve]"
COc1cc(CN(C(=O)COc2ccc(F)cc2)c2ccccn2)cc(OC)c1OC,AC50,[1],"20 µM [falling, single point]"
CCCc1cc(=O)n2[nH]c(NCc3c(F)cccc3Cl)nc2n1,AC50,[1],"1.58 µM [rising, partial curve]"
COc1ccc(N2CCN(S(=O)(=O)c3ccc4c(c3)C(C(C)C)C(=O)N4)CC2)cc1 (centres undefined),AC50,[1],"15.8 µM [falling, partial curve]"

# Reference: PubChem BioAssay AID445 (National Center for Advancing Translational Sciences (NCATS), 2006)
